{
  "sequences": {"note": "Chains of the proteins cited; added tags and fusions are not shown.", "UniProt P18054, whole entry, looked up": "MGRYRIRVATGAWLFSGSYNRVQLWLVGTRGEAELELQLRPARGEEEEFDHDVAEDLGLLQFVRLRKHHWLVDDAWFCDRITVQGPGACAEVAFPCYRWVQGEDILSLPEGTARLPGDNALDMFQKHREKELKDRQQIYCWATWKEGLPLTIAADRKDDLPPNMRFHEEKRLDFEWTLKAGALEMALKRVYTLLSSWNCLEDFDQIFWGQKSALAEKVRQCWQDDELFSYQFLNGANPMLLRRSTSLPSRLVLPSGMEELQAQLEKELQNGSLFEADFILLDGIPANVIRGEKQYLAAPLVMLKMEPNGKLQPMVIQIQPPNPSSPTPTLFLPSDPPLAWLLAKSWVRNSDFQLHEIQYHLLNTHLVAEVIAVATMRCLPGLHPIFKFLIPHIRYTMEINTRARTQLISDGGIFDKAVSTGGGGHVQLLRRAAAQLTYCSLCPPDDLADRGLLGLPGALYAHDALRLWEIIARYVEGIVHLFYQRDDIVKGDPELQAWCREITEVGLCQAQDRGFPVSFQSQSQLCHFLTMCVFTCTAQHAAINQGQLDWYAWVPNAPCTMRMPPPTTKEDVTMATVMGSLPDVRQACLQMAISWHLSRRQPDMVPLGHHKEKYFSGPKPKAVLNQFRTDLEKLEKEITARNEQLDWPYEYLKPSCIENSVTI"},
  "source": "PubChem BioAssay AID1671190",
  "about": "(National Center for Advancing Translational Sciences (NCATS), 2021)",
  "note": "“And” between values parts separate entries of the source, which are not always exact repeats. Equal values may be shown once. The campaign covered roughly 580,000 compounds. About 6,100 (1.1%) were called active. This list was built around the results that the source calls inconclusive (neither active nor inactive); the mix of calls is not that of the screen. Calls come from the whole dose curve; as a rule, active = well fitted inhibition curve with a large enough effect; inconclusive = small, poorly fitted or top-dose-only effect, or another doubt; inactive = no such curve, though single readings can be large or run the other way. Where the call is inconclusive, the potency comes from a doubtful curve fit. % is set by controls: 0 for no effect and ±100 for the full control effect; potency is the fitted concentration of half-maximal effect.",
  "data": [
    {"molecular_target": "Polyunsaturated fatty acid lipoxygenase ALOX12 (Homo sapiens) (UniProt P18054)", "assay": "Primary qHTS assay for inhibitors of human arachidonate 12S-lipoxygenase (ALOX12): Round 2", "conditions": "purified 12hLO, xylenol orange hydroperoxide absorbance; activity change, negative = inhibition: at 108 µM (top of the series)", "procedure,_shortened": "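Purified human 12hLO (150 nM final) in 25 mM Hepes, 0.01% Triton X-100, pH 7.0 was preincubated 15 min at room temperature with compound. Then 40 uM arachidonic acid was added, 30 min. Hydroperoxide was read by Fe-XO absorbance ratio 573/405 nm.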", "values": [
      {"smiles": "CN(C)C(=Nc1ccccc1)P(=S)(N(C)C)N(C)C", "Potency": "inconclusive: 89.1 µM [inhibitor, single point]"},
      {"smiles": "COc1ccc(CNCCc2ccccc2F)c(OC)c1C", "Potency": "inconclusive: 2 µM [inhibitor, full curve, poor fit]"},
      {"smiles": "COc1ccc(CCN(C)Cc2ccncc2)cc1OC", "Potency": "inconclusive: 0.398 µM [inhibitor, full curve, poor fit]"},
      {"smiles": "COC(=O)c1nc(-c2ccc3c(n2)C(=O)C(N)=C(OC)C3=O)c(N)c(-c2ccc(OC)c(OC)c2O)c1C", "Potency": "active: 15.8 µM"},
      {"smiles": "COc1ccc2c(c1)c(C(=O)O)c(C)n2CC(C)C", "activity change, negative = inhibition": "inactive: 10.1%"},
      {"smiles": "CCOP(=O)(C(NC(=O)c1ccccc1Cl)=C(Cl)Cl)c1ccccc1", "note": "(configuration not stated)", "activity change, negative = inhibition": "inactive: -10.1%"},
      {"smiles": "CC(=O)Nc1ccc(S(=O)(=O)N2Cc3cnnn3-c3ccccc3C2C#N)cc1", "note": "(configuration not stated)", "Potency": "inconclusive: 11.2 µM [inhibitor, partial curve, poor fit]"},
      {"smiles": "CCCCC(=O)N/N=C/c1c(O)n(CC)c(=S)n(CC)c1=O", "Potency": "inconclusive: 44.7 µM [inhibitor, partial curve, poor fit]"},
      {"smiles": "CCn1nc(/C=C/c2ccccc2)nc2c(=O)n(C)c(=O)nc1-2", "activity change, negative = inhibition": "inactive: -29.9%"},
      {"smiles": "c1cncc(CNC2=NCCC2)c1", "activity change, negative = inhibition": "inactive: -16.5%"},
      {"smiles": "CCOc1cccc(=NC2CCCCC2)c2c(C)[nH]c(C)c12", "Potency": "inconclusive: 100 µM [inhibitor, single point]"},
      {"smiles": "CCOc1ccc(CN(CCc2ccc3c(c2)OCO3)Cc2cc(OC)ccc2O)cc1", "Potency": "inconclusive: 1.41 µM [inhibitor, partial curve, poor fit]"},
      {"smiles": "COc1ccc(/C=C2/C(=O)NC(=O)N(c3ccc(C)c(C)c3)C2=O)cc1CN1C(=O)c2ccccc2C1=O", "Potency": "inconclusive: 44.7 µM [inhibitor, partial curve, poor fit]"},
      {"smiles": "CN1CCN(c2ccc(N)cc2Cl)CC1", "activity change, negative = inhibition": "inactive: 7.69%"},
      {"smiles": "NC(=O)C1=NO[C@@H]2CN(CC3CCCCC3)C[C@H]12", "activity change, negative = inhibition": "inactive: 7.79% [at 176 µM]"},
      {"smiles": "Cc1nc(-c2ccco2)cc([C@H]2CN3CC[C@H]2C[C@@H]3CNS(=O)(=O)c2cccs2)n1", "Potency": "inconclusive: 25.1 µM [inhibitor, full curve, poor fit]"},
      {"smiles": "Cc1ccc(CNCCc2ccccc2)s1", "activity change, negative = inhibition": "inactive: -19.6%"},
      {"smiles": "Oc1ccc(C2N(O)C3CCCCC3N2O)cc1", "note": "(configuration not stated)", "Potency": "inconclusive: 39.8 µM [inhibitor, partial curve, poor fit]"},
      {"smiles": "CC(C)(C)c1cc2c(c(C(C)(C)C)c1)Oc1cc(C#N)c(C#N)cc1O2", "activity change, negative = inhibition": "inactive: 8.76%"},
      {"smiles": "C=CCN1C(=O)NC(=O)/C(=C/C=C/c2ccccc2)C1=O", "Potency": "inconclusive: 31.6 µM [inhibitor, partial curve, poor fit]"},
      {"smiles": "O=C1NC(=O)N(Cc2ccc(F)cc2)C(=O)/C1=C\\c1ccoc1", "Potency": "inconclusive: 22.4 µM [inhibitor, full curve, poor fit]"},
      {"smiles": "O=C1CC2CCN(CC3CCNC3)CC2CCN1", "note": "(configuration not stated)", "Potency": "inconclusive: 28.2 µM [inhibitor, full curve, poor fit]"},
      {"smiles": "O=C(C[N+]12CCC(CC1)C(C(O)(c1ccccc1)c1ccccc1)C2)c1ccc(Br)cc1", "note": "(configuration not stated)", "Potency": "inconclusive: 100 µM [inhibitor, partial curve, poor fit]"},
      {"smiles": "O=P(Nc1ccccc1)(Nc1ccccc1)Oc1ccc(Cl)cc1", "Potency": "inconclusive: 100 µM [inhibitor, single point]"},
      {"smiles": "COC(=O)C1=CO[C@@H](C)[C@@H]2CN(CCc3c[nH]c4ccccc34)CC[C@H]12", "Potency": "inconclusive: 89.1 µM [inhibitor, partial curve, poor fit]"},
      {"smiles": "Cc1cccc(C(=O)N2CCC3(CC2)c2nccn2-c2ccccc2CN3C)c1", "activity change, negative = inhibition": "inactive: 71.8%"},
      {"smiles": "Cc1ccc2occ(CN3CC4CC(C3)c3cccc(=O)n3C4)c(=O)c2c1", "note": "(configuration not stated)", "activity change, negative = inhibition": "inactive: -17.8%"},
      {"smiles": "Cc1ccc(N2C(=O)NC(=O)C3(Cc4ccccc4N4CCCC43)C2=O)cc1", "note": "(configuration not stated)", "Potency": "inconclusive: 20 µM [inhibitor, partial curve, poor fit]"},
      {"smiles": "CCOc1ccc(NC(=O)c2c(C)nn(Cc3ccccc3)c2Cl)cc1", "activity change, negative = inhibition": "inactive: -2.27%"},
      {"smiles": "Oc1cc(Cl)c(Cl)c(Cl)c1Cl", "activity change, negative = inhibition": "inactive: -26.9%"},
      {"smiles": "Cc1ccccc1-c1ccc2c(c1)C1c3c(-c4ccccc4)nnn3-c3ccccc3C(=O)N1CC2", "note": "(configuration not stated)", "Potency": "inconclusive: 50.1 µM [inhibitor, partial curve, poor fit]"},
      {"smiles": "COc1cccc(N2C(=O)/C(=C/c3ccc(C)o3)C(=O)NC2=S)c1", "Potency": "active: 10 µM"},
      {"smiles": "COCCOc1cc2c(cc1C=O)OCO2", "activity change, negative = inhibition": "inactive: -55.3%"},
      {"smiles": "CCn1c(O)c(C=Nc2ccc(S(N)(=O)=O)cc2)c(=O)[nH]c1=S", "Potency": "inconclusive: 39.8 µM [inhibitor, partial curve, poor fit]"},
      {"smiles": "Nc1ccccc1C(=O)OC1CSC1", "Potency": "inconclusive: 44.7 µM [inhibitor, partial curve, poor fit]"},
      {"smiles": "CCN1CCN(C(=O)Cc2coc3ccc4ccccc4c23)CC1", "Potency": "inconclusive: 63.1 µM [inhibitor, partial curve, poor fit]"},
      {"smiles": "COc1cccc(CCNCc2ccc(OC)c3ccccc23)c1", "Potency": "inconclusive: 14.1 µM [inhibitor, full curve, poor fit]"},
      {"smiles": "CC(C)[C@@]1(NC(=O)[C@@H]2C[C@H]3c4cccc5[nH]cc(c45)C[C@@H]3N(C)C2)O[C@@]2(O)[C@H]3CCCN3C(=O)[C@H](Cc3ccccc3)N2C1=O", "Potency": "inconclusive: 28.2 µM [inhibitor, partial curve, poor fit] and inconclusive: 44.7 µM [inhibitor, partial curve, poor fit]"},
      {"smiles": "c1ccc(CCc2ccc3n2Cc2cnnn2-c2ccccc2-3)cc1", "activity change, negative = inhibition": "inactive: 9.35%"},
      {"smiles": "CC(Cl)C(=O)NC1CCCCC1", "note": "(configuration not stated)", "activity change, negative = inhibition": "inactive: 8.4%"},
      {"smiles": "CC(Cc1ccccc1)NCCC(=O)NC(C)Cc1ccccc1", "note": "(configuration not stated)", "activity change, negative = inhibition": "inactive: 67.5%"},
      {"smiles": "ClCCN1CCOCC1", "Potency": "inconclusive: 7.08 µM [inhibitor, full curve, poor fit]"},
      {"smiles": "CCCCn1nnnc1C(CCSC)N1CCC2(CC1)C(=O)NCN2c1ccccc1", "note": "(configuration not stated)", "activity change, negative = inhibition": "inactive: 4.75%"},
      {"smiles": "COc1ccccc1N1CCN(CCc2ccccc2)CC1", "Potency": "inconclusive: 89.1 µM [inhibitor, single point]"},
      {"smiles": "NCCc1cccs1", "activity change, negative = inhibition": "inactive: 79.1%"},
      {"smiles": "CCCCn1c(=O)c(C(=O)Nc2ccsc2C(=O)OC)c(O)c2ccccc21", "activity change, negative = inhibition": "inactive: 9.01%"},
      {"smiles": "Cc1cccc(CN2CCN(Cc3ccc(Cl)cc3)CC2)c1", "Potency": "inconclusive: 0.1 µM [inhibitor, full curve, poor fit]"},
      {"smiles": "CCN(CC)c1ccc(CNCCc2ccc(F)cc2)cc1", "Potency": "inconclusive: 39.8 µM [inhibitor, partial curve, poor fit]"},
      {"smiles": "COc1ccc(CCNCc2ccccc2F)cc1", "Potency": "inconclusive: 0.794 µM [inhibitor, full curve, poor fit]"},
      {"smiles": "CC(C)Nc1ccc(Nc2ccccc2)cc1", "Potency": "inconclusive: 5.01 µM [inhibitor, full curve, poor fit]"},
      {"smiles": "Cc1cc(/C=C2\\C(=O)NC(=O)N(c3cccc(Br)c3)C2=O)c(C)n1C", "Potency": "inconclusive: 0.708 µM [inhibitor, full curve, poor fit]"},
      {"smiles": "Cc1cc(N(CCCl)CCCl)ccc1C=Cc1ccncn1", "activity change, negative = inhibition": "inactive: 4.97%"},
      {"smiles": "O=C1NCCOCCN[C@@H]2CCCC[C@H]12", "activity change, negative = inhibition": "inactive: 47.6%"},
      {"smiles": "O=C(c1onc2ccccc12)N1CCC2(CCCNC2)C1", "note": "(configuration not stated)", "activity change, negative = inhibition": "inactive: 13.2%"},
      {"smiles": "Cc1nc(-c2ccccc2Br)cc([C@H]2CN3CC[C@H]2C[C@@H]3CNC(=O)Nc2cccc(C#N)c2)n1", "Potency": "active: 28.2 µM"},
      {"smiles": "C=CCn1c(O)c(N=Nc2c(C)n(C)n(-c3ccccc3)c2=O)c(=O)[nH]c1=S", "Potency": "inconclusive: 31.6 µM [inhibitor, partial curve, poor fit]"},
      {"smiles": "COc1ccc(C(C)=O)cc1Cc1c(O)[nH]c(=S)[nH]c1=O", "Potency": "inconclusive: 35.5 µM [inhibitor, single point]"},
      {"smiles": "O=c1ccc2c(O)c3ccoc3cc2o1", "activity change, negative = inhibition": "inactive: 40.4%"},
      {"smiles": "O=C(Oc1ccccc1)N1CCC[C@@]2(CCN(Cc3nccs3)C2)C1", "Potency": "inconclusive: 44.7 µM [inhibitor, single point]"},
      {"smiles": "C=C(CC1CC(O)[C@]2(C)OC3CC4OC5C[C@]6(C)O[C@]7(C)CCC8OC9C[C@]%10(C)OC%11C(C)=CC(=O)OC%11CC%10OC9C[C@@H](C)C8OC7CC6O[C@]5(C)C/C=C\\C4OC3CC2O1)C(=O)O", "note": "(some centres not stated)", "Potency": "inactive"},
      {"smiles": "Cc1cc(N2CCNC[C@H]2C)ccc1N1CCN[C@H](C)C1", "Potency": "active: 39.8 µM"},
      {"smiles": "O=c1c2ccccc2nc(/C=C/c2ccco2)n1-c1ccccc1O", "Potency": "active: 35.5 µM"},
      {"smiles": "C=C1C(=O)OC2CC3(C)OC3CCC(C)=CC(OC(C)=O)C12", "note": "(configuration not stated)", "activity change, negative = inhibition": "inactive: -7.14%"},
      {"smiles": "Cc1nc(-c2ccccc2Br)cc([C@H]2CN3CC[C@H]2C[C@@H]3CNC(=O)NC(C)C)n1", "Potency": "inconclusive: 17.8 µM [inhibitor, full curve, poor fit]"},
      {"smiles": "Cc1ccccc1CN1CCN(Cc2cccc(F)c2)CC1", "Potency": "active: 0.112 µM"},
      {"smiles": "Cc1[nH]c2ccccc2c1CCN", "activity change, negative = inhibition": "inactive: -5.96%"},
      {"smiles": "CC(C)N1CCN(Cc2cccc([N+](=O)[O-])c2)CC1", "Potency": "inconclusive: 0.708 µM [inhibitor, full curve, poor fit]"},
      {"smiles": "Cn1nc(C2CCCCC2)cc1[C@H]1CN2CC[C@H]1C[C@@H]2CNC(=O)N1CCOCC1", "activity change, negative = inhibition": "inactive: 32.9% [at 176 µM]"},
      {"smiles": "CC(C)NC(=O)N1CCC2(CC1)c1nccn1-c1ccccc1CN2C", "activity change, negative = inhibition": "inactive: 43.2%"},
      {"smiles": "O=C1NC(=S)SC1=Cc1ccc(N(CCCl)CCCl)cc1", "Potency": "inconclusive: 31.6 µM [inhibitor, partial curve, poor fit]"},
      {"smiles": "CC(=NCc1ccc2c(c1)OCO2)c1c(O)n(Cc2ccccc2)c(=O)[nH]c1=O", "Potency": "inconclusive: 112 µM [inhibitor, single point]"},
      {"smiles": "CC1CCCC(=O)CCCCCc2cc(O)cc(O)c2C(=O)O1", "note": "(configuration not stated)", "Potency": "inconclusive: 31.6 µM [inhibitor, partial curve, poor fit]"}
    ]}
  ]
}
